Experimental data taken from paper PMC9458672.
These are yes or no findings as the source states them, for the method shown.

The chains behind the UniProt entries cited, without tags or fusion partners. Where a name states a change or a piece, a line headed by the entry shows the natural chain unless it says otherwise.
UniProt Q15286: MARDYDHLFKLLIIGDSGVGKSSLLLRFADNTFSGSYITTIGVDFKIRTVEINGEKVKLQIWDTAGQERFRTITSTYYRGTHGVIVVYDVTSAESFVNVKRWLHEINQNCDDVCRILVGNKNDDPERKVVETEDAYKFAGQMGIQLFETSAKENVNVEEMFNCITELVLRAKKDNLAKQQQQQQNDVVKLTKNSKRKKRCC
UniProt Q15057: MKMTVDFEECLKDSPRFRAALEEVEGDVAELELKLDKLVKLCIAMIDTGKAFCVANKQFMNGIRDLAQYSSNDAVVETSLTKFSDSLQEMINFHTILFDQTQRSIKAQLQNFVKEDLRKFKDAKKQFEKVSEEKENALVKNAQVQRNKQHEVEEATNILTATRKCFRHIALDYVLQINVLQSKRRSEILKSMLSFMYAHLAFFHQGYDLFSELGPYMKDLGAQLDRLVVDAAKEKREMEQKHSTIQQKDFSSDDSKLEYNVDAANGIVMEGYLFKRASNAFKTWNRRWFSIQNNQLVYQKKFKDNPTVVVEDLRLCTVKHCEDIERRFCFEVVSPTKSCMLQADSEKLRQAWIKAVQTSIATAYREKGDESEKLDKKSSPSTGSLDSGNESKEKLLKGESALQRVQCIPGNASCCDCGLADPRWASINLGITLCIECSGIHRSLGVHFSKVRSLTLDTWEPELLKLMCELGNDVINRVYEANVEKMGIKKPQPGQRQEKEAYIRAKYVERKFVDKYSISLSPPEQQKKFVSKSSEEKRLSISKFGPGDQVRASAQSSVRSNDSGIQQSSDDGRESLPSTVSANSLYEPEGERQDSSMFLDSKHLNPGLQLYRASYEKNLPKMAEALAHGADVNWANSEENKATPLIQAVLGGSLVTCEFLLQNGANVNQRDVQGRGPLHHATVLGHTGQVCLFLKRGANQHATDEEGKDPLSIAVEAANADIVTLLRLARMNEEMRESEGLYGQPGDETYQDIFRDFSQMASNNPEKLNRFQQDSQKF
UniProt O00592: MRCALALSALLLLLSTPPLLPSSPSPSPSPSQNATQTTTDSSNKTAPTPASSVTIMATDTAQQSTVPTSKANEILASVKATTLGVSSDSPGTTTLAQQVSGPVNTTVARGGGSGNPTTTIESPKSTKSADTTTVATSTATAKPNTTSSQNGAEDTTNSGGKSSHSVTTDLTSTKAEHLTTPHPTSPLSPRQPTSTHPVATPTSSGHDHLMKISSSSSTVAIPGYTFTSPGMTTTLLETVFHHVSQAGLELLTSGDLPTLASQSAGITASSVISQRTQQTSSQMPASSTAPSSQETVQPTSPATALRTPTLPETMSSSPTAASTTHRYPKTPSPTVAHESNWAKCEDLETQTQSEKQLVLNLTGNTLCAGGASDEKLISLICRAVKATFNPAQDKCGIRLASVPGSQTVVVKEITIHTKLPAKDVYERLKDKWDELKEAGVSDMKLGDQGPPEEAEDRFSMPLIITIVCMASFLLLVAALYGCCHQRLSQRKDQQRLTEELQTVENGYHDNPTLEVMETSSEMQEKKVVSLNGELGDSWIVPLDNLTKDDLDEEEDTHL

Target: Tom20-Rab35 wild-type (mitochondrial-targeted Rab35) (UniProt Q15286)
Experiment: mitochondrial mislocalisation (Tom20 tethering) by fluorescence microscopy; bait tethered to mitochondria by a Tom20 tag and co-expressed with the candidate partner (or stained for the endogenous one) in HUVECs; relocation of the partner to mitochondria read by imaging and Pearson's coefficient

Row | Substance | binding
1 | ACAP2 with the ankyrin repeat domain deleted (from UniProt Q15057) | no binding
2 | human podocalyxin cytoplasmic domain (residues 476–551) (from UniProt O00592) (domain or fragment) | no binding
